Source: article PMC7955098
Results are given in words; binding and its absence hold for the method and conditions named. Binding seen in cells or lysates may run through a third protein. Some results given as binding are weak or reduced against the parent protein; the word gives no strength. One block for each molecule: values may come before it.

By UniProt entry, the sequences of proteins in these tests, tags left out.
UniProt O15550: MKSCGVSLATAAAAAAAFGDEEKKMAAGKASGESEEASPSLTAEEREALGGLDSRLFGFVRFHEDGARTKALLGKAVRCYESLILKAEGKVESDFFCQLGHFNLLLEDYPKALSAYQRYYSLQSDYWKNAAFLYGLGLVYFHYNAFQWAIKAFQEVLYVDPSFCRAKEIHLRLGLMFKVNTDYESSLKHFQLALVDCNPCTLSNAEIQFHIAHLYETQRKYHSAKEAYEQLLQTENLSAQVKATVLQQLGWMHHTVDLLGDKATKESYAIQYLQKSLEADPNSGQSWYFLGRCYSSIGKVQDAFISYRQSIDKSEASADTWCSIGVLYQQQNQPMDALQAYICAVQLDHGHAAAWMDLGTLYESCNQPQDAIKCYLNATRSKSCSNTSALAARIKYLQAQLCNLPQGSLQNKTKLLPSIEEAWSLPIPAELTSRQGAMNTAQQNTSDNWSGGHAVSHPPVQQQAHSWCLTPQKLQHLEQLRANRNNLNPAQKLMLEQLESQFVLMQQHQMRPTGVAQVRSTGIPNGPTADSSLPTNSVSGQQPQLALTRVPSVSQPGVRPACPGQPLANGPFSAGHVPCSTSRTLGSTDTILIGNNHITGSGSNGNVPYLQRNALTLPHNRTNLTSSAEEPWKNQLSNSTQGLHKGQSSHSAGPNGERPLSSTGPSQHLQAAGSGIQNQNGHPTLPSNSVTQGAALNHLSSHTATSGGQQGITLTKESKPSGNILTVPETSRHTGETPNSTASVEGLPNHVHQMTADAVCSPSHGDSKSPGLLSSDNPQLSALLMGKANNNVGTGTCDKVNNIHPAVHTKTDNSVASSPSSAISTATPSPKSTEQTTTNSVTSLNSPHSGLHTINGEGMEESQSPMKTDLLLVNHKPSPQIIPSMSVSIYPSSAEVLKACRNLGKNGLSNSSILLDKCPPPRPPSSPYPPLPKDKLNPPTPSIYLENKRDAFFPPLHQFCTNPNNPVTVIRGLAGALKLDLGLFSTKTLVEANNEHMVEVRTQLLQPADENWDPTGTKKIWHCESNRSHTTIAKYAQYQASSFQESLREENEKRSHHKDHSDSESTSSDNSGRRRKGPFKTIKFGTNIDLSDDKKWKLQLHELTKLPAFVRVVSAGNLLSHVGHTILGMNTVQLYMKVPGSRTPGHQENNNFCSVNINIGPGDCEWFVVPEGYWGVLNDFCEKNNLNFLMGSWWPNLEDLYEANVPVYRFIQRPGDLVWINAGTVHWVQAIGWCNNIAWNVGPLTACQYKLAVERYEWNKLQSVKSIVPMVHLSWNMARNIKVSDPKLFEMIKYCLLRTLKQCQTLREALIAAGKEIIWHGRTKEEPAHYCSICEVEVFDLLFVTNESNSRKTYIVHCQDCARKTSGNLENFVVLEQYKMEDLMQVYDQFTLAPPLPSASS
UniProt O70546: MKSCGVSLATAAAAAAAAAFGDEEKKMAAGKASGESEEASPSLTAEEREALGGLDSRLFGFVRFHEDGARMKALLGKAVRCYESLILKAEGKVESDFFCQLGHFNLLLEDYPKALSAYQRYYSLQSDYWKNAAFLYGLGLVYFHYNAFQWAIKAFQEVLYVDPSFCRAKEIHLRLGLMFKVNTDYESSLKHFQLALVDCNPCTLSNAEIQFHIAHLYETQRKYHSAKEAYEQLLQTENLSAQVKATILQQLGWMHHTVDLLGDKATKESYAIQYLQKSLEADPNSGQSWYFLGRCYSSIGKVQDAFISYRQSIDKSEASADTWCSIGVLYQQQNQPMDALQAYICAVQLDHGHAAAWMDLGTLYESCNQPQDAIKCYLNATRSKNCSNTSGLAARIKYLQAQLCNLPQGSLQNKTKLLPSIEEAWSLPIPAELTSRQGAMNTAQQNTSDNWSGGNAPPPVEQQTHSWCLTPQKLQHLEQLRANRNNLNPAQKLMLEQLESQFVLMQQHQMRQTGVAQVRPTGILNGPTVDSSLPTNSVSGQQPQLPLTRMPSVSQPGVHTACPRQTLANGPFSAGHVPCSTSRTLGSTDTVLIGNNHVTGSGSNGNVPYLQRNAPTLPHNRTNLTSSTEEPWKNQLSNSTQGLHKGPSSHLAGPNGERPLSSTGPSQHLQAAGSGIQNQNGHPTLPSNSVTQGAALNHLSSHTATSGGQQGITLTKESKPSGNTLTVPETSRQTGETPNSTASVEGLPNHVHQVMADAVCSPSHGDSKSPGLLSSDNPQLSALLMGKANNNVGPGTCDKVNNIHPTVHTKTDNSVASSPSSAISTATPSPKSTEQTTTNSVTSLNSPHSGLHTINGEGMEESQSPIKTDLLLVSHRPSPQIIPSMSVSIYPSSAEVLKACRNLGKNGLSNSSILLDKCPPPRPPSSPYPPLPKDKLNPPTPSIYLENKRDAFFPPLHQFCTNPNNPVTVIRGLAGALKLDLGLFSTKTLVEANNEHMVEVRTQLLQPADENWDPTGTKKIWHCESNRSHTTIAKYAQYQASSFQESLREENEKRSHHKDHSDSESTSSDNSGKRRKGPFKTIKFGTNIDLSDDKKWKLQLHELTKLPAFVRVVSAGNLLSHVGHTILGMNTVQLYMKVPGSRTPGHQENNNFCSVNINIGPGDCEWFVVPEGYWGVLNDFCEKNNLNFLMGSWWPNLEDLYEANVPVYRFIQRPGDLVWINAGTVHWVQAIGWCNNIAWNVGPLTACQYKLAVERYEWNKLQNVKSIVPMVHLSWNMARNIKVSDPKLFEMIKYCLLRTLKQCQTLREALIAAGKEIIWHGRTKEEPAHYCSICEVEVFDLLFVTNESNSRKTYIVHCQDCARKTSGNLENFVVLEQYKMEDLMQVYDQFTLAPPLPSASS
UniProt P51532: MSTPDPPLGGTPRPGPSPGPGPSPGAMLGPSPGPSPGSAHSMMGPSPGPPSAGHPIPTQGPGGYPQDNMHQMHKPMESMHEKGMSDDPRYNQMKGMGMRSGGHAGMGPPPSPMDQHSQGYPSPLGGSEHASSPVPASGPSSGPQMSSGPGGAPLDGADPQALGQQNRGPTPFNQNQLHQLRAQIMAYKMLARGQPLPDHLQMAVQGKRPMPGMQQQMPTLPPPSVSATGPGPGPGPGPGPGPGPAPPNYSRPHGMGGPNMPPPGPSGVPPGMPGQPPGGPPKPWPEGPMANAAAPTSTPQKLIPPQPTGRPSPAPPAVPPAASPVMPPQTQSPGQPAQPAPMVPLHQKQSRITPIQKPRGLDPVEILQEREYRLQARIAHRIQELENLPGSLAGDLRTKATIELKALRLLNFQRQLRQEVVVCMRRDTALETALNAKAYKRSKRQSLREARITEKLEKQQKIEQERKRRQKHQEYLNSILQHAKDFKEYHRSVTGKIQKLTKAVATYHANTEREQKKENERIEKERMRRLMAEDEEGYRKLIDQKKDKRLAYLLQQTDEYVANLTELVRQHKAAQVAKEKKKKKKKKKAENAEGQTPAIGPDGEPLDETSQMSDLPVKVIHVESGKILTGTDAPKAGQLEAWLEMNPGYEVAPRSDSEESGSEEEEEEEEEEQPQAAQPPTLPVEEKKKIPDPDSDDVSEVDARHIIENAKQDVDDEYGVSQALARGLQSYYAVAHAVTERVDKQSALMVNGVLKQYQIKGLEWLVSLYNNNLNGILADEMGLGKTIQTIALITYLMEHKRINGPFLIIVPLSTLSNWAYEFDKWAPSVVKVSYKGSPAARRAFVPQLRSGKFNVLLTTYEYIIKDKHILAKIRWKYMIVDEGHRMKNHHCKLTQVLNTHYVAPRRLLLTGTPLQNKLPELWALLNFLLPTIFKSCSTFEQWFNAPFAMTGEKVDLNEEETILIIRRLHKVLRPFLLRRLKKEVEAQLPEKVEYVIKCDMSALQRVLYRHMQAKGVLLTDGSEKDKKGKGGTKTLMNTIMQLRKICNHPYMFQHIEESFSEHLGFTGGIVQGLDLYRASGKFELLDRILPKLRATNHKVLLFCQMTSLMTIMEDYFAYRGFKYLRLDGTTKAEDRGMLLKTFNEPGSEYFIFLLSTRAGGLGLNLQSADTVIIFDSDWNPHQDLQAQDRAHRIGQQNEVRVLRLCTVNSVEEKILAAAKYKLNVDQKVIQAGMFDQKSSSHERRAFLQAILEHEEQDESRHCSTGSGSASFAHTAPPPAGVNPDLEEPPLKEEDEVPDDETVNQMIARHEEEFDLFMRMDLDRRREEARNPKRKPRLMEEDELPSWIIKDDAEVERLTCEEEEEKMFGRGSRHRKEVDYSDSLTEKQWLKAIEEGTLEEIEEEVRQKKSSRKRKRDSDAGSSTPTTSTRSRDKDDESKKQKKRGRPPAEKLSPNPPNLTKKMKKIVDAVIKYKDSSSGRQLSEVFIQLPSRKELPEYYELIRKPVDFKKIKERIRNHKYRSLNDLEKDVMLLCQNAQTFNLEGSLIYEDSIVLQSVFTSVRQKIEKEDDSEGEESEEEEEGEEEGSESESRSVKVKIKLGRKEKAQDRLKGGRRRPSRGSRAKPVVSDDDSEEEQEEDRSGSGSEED
UniProt Q3TKT4: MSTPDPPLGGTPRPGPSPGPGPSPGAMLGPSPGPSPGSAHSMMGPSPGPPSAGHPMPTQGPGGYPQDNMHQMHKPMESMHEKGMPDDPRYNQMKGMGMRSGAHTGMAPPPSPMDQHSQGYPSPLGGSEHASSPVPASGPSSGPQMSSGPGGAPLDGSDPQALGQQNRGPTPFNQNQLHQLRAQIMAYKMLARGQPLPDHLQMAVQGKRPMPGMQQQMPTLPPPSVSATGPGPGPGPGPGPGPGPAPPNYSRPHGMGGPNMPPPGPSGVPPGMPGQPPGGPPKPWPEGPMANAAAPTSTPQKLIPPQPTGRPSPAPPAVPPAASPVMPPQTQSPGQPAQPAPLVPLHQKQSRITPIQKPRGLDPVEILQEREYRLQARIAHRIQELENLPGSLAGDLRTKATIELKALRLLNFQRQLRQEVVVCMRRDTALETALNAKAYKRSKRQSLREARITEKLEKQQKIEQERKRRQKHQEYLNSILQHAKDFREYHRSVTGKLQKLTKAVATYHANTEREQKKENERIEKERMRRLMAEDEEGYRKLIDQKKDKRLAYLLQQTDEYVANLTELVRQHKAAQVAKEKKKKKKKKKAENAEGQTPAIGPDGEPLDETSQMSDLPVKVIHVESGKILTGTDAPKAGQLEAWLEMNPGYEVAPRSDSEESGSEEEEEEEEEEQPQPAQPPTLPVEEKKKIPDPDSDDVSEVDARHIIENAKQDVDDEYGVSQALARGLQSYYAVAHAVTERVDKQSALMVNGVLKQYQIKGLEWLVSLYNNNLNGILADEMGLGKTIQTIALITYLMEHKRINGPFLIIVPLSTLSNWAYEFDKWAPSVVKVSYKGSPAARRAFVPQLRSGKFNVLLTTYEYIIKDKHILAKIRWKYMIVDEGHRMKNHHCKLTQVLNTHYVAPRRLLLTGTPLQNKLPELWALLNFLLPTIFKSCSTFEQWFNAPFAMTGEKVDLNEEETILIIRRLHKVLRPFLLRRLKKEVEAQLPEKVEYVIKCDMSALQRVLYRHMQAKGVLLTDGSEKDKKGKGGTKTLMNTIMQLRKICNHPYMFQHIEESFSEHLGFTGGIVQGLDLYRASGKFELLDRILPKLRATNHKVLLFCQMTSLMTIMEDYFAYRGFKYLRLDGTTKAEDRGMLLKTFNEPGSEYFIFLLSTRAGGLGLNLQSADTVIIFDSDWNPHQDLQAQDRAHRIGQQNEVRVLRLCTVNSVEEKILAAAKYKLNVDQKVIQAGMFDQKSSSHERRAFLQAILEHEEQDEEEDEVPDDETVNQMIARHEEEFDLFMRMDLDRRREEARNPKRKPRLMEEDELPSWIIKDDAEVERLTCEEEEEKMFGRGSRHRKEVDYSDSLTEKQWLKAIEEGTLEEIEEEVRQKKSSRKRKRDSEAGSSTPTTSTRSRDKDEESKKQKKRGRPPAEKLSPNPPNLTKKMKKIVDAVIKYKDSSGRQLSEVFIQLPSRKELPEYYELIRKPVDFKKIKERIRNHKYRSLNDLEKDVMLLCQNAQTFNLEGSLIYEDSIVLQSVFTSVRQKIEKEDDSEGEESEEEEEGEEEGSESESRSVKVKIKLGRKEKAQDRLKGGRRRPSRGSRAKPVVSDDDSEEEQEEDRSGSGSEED
UniProt Q12824: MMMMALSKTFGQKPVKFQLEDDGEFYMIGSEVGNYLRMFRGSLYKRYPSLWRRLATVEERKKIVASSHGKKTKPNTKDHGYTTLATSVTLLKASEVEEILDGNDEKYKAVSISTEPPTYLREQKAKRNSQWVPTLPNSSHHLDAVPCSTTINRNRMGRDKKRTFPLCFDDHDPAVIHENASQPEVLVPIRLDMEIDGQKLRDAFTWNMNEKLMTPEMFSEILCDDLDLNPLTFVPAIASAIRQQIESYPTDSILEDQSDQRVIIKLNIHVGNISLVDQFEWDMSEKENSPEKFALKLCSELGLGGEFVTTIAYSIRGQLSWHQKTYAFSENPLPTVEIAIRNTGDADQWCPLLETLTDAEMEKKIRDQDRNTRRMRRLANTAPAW

Key:
[1] = target: MLL4 (KMT2D), human, endogenous (human (endogenous in HEK293T)) (UniProt O14686); assay: co-IP; HEK293T nuclear extract diluted in IP buffer (50 mM Tris-HCl pH 7.5, 1 mM EDTA, 150 mM NaCl, 1% Triton X-100), anti-MLL4 or anti-UTX antibody overnight at 4 °C, Dynabeads Protein A; Western blot
[2] = target: UTX, human, endogenous (human (endogenous in HEK293T)) (UniProt O15550); assay: as above
[3] = target: MLL4 (KMT2D), mouse, endogenous (mouse (endogenous in mouse ES cells and mouse preadipocytes)) (UniProt Q6PDK2); assay: co-IP; nuclear extract of mouse preadipocytes at D2 of adipogenesis diluted in IP buffer (50 mM Tris-HCl pH 7.5, 1 mM EDTA, 150 mM NaCl, 1% Triton X-100), anti-MLL4 or anti-UTX antibody overnight at 4 °C, Dynabeads Protein A; Western blot
[4] = target: UTX, mouse, endogenous (mouse (endogenous in mouse ES cells and mouse preadipocytes)) (UniProt O70546); assay: as above

- binding [1]: binds
- binding [2]: binds
Molecule: SMARCA4 (BRG1), human, endogenous (from UniProt P51532 1-1647)

- binding [3]: binds
- binding [4]: binds
Molecule: SMARCA4 (BRG1), mouse, endogenous (from UniProt Q3TKT4 1-1613)

- binding [1]: binds
- binding [2]: binds
Molecule: SMARCB1 (SNF5, INI1, or BAF47), human, endogenous (from UniProt Q12824 1-385)

- binding [3]: no binding
- binding [4]: no binding
B1: Menin, MLL1 complex subunit, mouse, endogenous (protein, UniProt O88559 1-611)
chain: MGLKAAQKTLFPLRSIDDVVRLFAAELGREEPDLVLLSLVLGFVEHFLAVNRVIPTNVPELTFQPSPAPDPPGGLTYFPVADLSIIAALYARFTAQIRGAVDLSLYPREGGVSSRELVKKVSDVIWNSLSRSYFKDRAHIQSLFSFITGTKLDSSGVAFAVVGACQALGLRDVHLALSEDHAWVVFGPNGEQTAEVTWHGKGNEDRRGQTVNAGVAERSWLYLKGSYMRCDRKMEVAFMVCAINPSIDLHTDSLELLQLQQKLLWLLYDLGHLERYPMALGNLADLEELEPTPGRPDPLTLYHKGIASAKTYYQDEHIYPYMYLAGYHCRNRNVREALQAWADTATVIQDYNYCREDEEIYKEFFEVANDVIPNLLKEAASLLETGEERTGEQAQGTQGQGSALQDPECFAHLLRFYDGICKWEEGSPTPVLHVGWATFLVQSLGRFEGQVRQKVHIVSREAEAAEAEEPWGDEAREGRRRGPRRESKPEEPPPPKKPALDKGPGSGQSAGSGPPRKTSGTVPGTTRGGQEVGNAAQAPAPAASPPPEGPVLTFQSEKMKGMKELLVATKINSSAIKLQLTAQSQVQMKKQKVSTPSDYTLSFLKRQRKGL

- binding [1]: no binding
- binding [2]: no binding
B2: Menin, MLL1 complex subunit, human, endogenous (protein, UniProt O00255 1-610)
chain: MGLKAAQKTLFPLRSIDDVVRLFAAELGREEPDLVLLSLVLGFVEHFLAVNRVIPTNVPELTFQPSPAPDPPGGLTYFPVADLSIIAALYARFTAQIRGAVDLSLYPREGGVSSRELVKKVSDVIWNSLSRSYFKDRAHIQSLFSFITGTKLDSSGVAFAVVGACQALGLRDVHLALSEDHAWVVFGPNGEQTAEVTWHGKGNEDRRGQTVNAGVAERSWLYLKGSYMRCDRKMEVAFMVCAINPSIDLHTDSLELLQLQQKLLWLLYDLGHLERYPMALGNLADLEELEPTPGRPDPLTLYHKGIASAKTYYRDEHIYPYMYLAGYHCRNRNVREALQAWADTATVIQDYNYCREDEEIYKEFFEVANDVIPNLLKEAASLLEAGEERPGEQSQGTQSQGSALQDPECFAHLLRFYDGICKWEEGSPTPVLHVGWATFLVQSLGRFEGQVRQKVRIVSREAEAAEAEEPWGEEAREGRRRGPRRESKPEEPPPPKKPALDKGLGTGQGAVSGPPRKPPGTVAGTARGPEGGSTAQVPAPTASPPPEGPVLTFQSEKMKGMKELLVATKINSSAIKLQLTAQSQVQMKKQKVSTPSDYTLSFLKRQRKGL
